Experimental data from PMC6637503.
These are yes or no findings as the source states them, for the method shown. Binding seen in cells or lysates may run through a third protein. Binding can be weak; no strength is given. Where a sequence is shown, tags or fusion partners need not be part of it.

Biological target: the first WW domain of WWOX (WWOXww), fluorescent construct for FRET (murine)
Experiment: FRET or BRET; three-protein FRET microscopy in COS7 cells transfected with the first WW domain of WWOX (WWOXww), TIAF1 and p53, treated with Prima-1 over time; FRETc

binding: binds
B1: TIAF1-EGFP (protein, UniProt O95411 1-115)
chain: MSSPSSPFREQSFLCAAGDAGEESRVQVLKNEVRRGSPVLLGWVEQAYADKCVCGPSAPPAPTPPSLSQRVMCNDLFKVNPFQLQQFRADPSTASLLLCPGGLDHKLNLRGKAWG
